Results published in US20250283871A1, “COMPOSITIONS AND METHODS FOR MODULATING THE INTERACTION BETWEEN SS18-SSX FUSION ONCOPROTEIN AND NUCLEOSOMES” (Dana-Farber Cancer Institute, Inc., priority 2020, published 2025).

Tested on: BAF complex subunits and histone proteins
Assay: Mass spectrometry proteomics of purified HA-SS18 WT and HA-SS18-SSX1 complexes (Tables 5A-5E)
Parameters: species or system human
Conditions: for Total / Unique: HA-SS18SSX1_CHR_peptides; for Total: total peptides of the identified protein; for Unique: unique peptides of the identified protein
[1] = HA-SS18SSX1_CHR_peptides: protein identified in the HA-SS18-SSX1 purification from solubilized chromatin (CHR), HEK-293T
[2] = HA-SS18SSX1 purification, NE (soluble nuclear extract) fraction, HEK-293T, peptides per identified protein
[3] = HA-SS18WT_CHR_peptides: HA-SS18 WT purification from nuclease-treated solubilized chromatin (CHR), HEK-293T, label = protein identified
[4] = HA-SS18WT_NE_peptides: HA-SS18 WT complexes purified from nuclear extract (NE), HEK-293T, label = protein identified (Gene Symbol)
[5] = HA-SS18SSX1_NE_peptides (Table 5B), HA-SS18-SSX1 BAF complex purification from soluble nuclear extract, HEK-293T
[6] = HA-SS18WT_NE_peptides: proteins co-purified with HA-SS18 WT from nuclear extract (NE), HEK-293T
[7] = HA-SS18WT_CHR_peptides: protein identified in HA-SS18 WT BAF complex purification from nuclease-treated solubilized chromatin (CHR), HEK-293T
[8] = HA-SS18SSX1_NE_peptides: protein co-purified with HA-SS18-SSX1 BAF complexes from soluble nuclear extract (NE), HEK-293T cells
[9] = HA-SS18SSX1_CHR_peptides: proteins found in HA-SS18-SSX1 BAF complex purification from solubilized chromatin (CHR), HEK-293T

EFTUD2
Total (total peptides) [1]: 17 | Unique (unique peptides) [1]: 17 | Total (total peptides) [2]: 11 | Unique (unique peptides) [2]: 11 | Total (peptides) [3]: 11 | Unique (peptides) [3]: 10 | Total (peptides) [4]: 15 | Unique (peptides) [4]: 15

EIF2B4 [listing 1 of 2 here]
Total (peptides) [5]: 1 | Unique (peptides) [5]: 1

EIF2B4 [listing 2 of 2 here]
Total (peptides) [6]: 1 | Unique (peptides) [6]: 1

ELAVL1
Total (total peptides) [7]: 2 | Unique (unique peptides) [7]: 2

ENO1
Total (peptides) [3]: 4 | Unique (peptides) [3]: 4

EPB41L2
Total (peptides) [8]: 2 | Unique (peptides) [8]: 2

EPB41L5
Total (total peptides) [2]: 5 | Unique (unique peptides) [2]: 5 | Total (total peptides) [7]: 1 | Unique (unique peptides) [7]: 1 | Total (peptides) [4]: 3 | Unique (peptides) [4]: 3

ERCC2
Total (total peptides) [2]: 5 | Unique (unique peptides) [2]: 5 | Total (peptides) [4]: 3 | Unique (peptides) [4]: 3

ESYT2 [listing 1 of 2 here]
Total (peptides) [8]: 1 | Unique (peptides) [8]: 1

ESYT2 [listing 2 of 2 here]
Total (total peptides) [2]: 12 | Unique (unique peptides) [2]: 12 | Total (peptides) [4]: 7 | Unique (peptides) [4]: 7 | Total (peptides) [6]: 1 | Unique (peptides) [6]: 1

EXOC4
Total (peptides) [6]: 1 | Unique (peptides) [6]: 1

EZH2
Total: 1 | Unique: 1 | Total (total peptides) [7]: 2 | Unique (unique peptides) [7]: 2

FABP5
Total (total peptides) [7]: 1 | Unique (unique peptides) [7]: 1

FAM208A
Total (total peptides) [1]: 13 | Unique (unique peptides) [1]: 13 | Total (peptides) [3]: 6 | Unique (peptides) [3]: 6

FAM208B
Total (total peptides) [1]: 6 | Unique (unique peptides) [1]: 6 | Total (peptides) [3]: 4 | Unique (peptides) [3]: 4

FANCD2 [listing 1 of 2 here]
Total (peptides) [5]: 1 | Unique (peptides) [5]: 1

FANCD2 [listing 2 of 2 here]
Total (peptides) [6]: 1 | Unique (peptides) [6]: 1

FANCI
Total (peptides) [8]: 2 | Unique (peptides) [8]: 2 | Total (peptides) [4]: 3 | Unique (peptides) [4]: 3

FIS1
Total (peptides) [6]: 1 | Unique (peptides) [6]: 1

FLNA
Total (total peptides) [7]: 1 | Unique (unique peptides) [7]: 1

GAPDH [listing 1 of 2 here]
Total (peptides) [8]: 1 | Unique (peptides) [8]: 1

GAPDH [listing 2 of 2 here]
Total: 3 | Unique: 2 | Total (peptides) [3]: 3 | Unique (peptides) [3]: 3

GAR1
Total (total peptides) [1]: 5 | Unique (unique peptides) [1]: 5 | Total (total peptides) [7]: 1 | Unique (unique peptides) [7]: 1

GCN1
Total (total peptides) [2]: 6 | Unique (unique peptides) [2]: 6 | Total (peptides) [4]: 9 | Unique (peptides) [4]: 8

GLTSCR2
Total: 1 | Unique: 1 | Total (peptides) [3]: 3 | Unique (peptides) [3]: 3

GLUD1
Total (total peptides) [2]: 4 | Unique (unique peptides) [2]: 4 | Total (peptides) [4]: 5 | Unique (peptides) [4]: 5

GPATCH8
Total: 3 | Unique: 3

GRWD1
Total (peptides) [6]: 1 | Unique (peptides) [6]: 1

GTPBP3
Total (peptides) [8]: 1 | Unique (peptides) [8]: 1

H2AFY
Total (total peptides) [1]: 20 | Unique (unique peptides) [1]: 14 | Total (total peptides) [2]: 6 | Unique (unique peptides) [2]: 6 | Total (peptides) [3]: 9 | Unique (peptides) [3]: 9

H2AFY2
Total (total peptides) [1]: 15 | Unique (unique peptides) [1]: 13 | Total (peptides) [3]: 8 | Unique (peptides) [3]: 6

HADHA
Total (total peptides) [2]: 16 | Unique (unique peptides) [2]: 13 | Total (total peptides) [7]: 1 | Unique (unique peptides) [7]: 1 | Total (peptides) [4]: 12 | Unique (peptides) [4]: 11

HAX1
Total (peptides) [8]: 2 | Unique (peptides) [8]: 2 | Total (peptides) [4]: 3 | Unique (peptides) [4]: 3

HBB [listing 1 of 2 here]
Total (peptides) [8]: 1 | Unique (peptides) [8]: 1

HBB [listing 2 of 2 here]
Total (peptides) [9]: 1 | Unique (peptides) [9]: 1 | Total (total peptides) [7]: 1 | Unique (unique peptides) [7]: 1 | Total (peptides) [6]: 1 | Unique (peptides) [6]: 1

HDAC2
Total: 3 | Unique: 3 | Total (total peptides) [7]: 2 | Unique (unique peptides) [7]: 2

HDGFL2
Total (total peptides) [1]: 5 | Unique (unique peptides) [1]: 3 | Total (total peptides) [7]: 1 | Unique (unique peptides) [7]: 1

HEATR1
Total (total peptides) [1]: 31 | Unique (unique peptides) [1]: 31 | Total: 1 | Unique: 1 | Total (total peptides) [2]: 3 | Unique (unique peptides) [2]: 3 | Total (peptides) [3]: 25 | Unique (peptides) [3]: 25 | Total (total peptides) [7]: 1 | Unique (unique peptides) [7]: 1 | Total (peptides) [4]: 3 | Unique (peptides) [4]: 3

HIST1H1A [listing 1 of 2 here]
Total (peptides) [5]: 1 | Unique (peptides) [5]: 1

HIST1H1A [listing 2 of 2 here]
Total (total peptides) [1]: 11 | Unique (unique peptides) [1]: 2 | Total (peptides) [3]: 3 | Unique (peptides) [3]: 2

HIST1H1C
Total (total peptides) [1]: 11 | Unique (unique peptides) [1]: 4 | Total (peptides) [3]: 7 | Unique (peptides) [3]: 4

HNRNPU
Total (total peptides) [1]: 55 | Unique (unique peptides) [1]: 21 | Total (total peptides) [2]: 3 | Unique (unique peptides) [2]: 3 | Total (peptides) [3]: 27 | Unique (peptides) [3]: 17 | Total (peptides) [4]: 3 | Unique (peptides) [4]: 3

HOXD13
Total: 3 | Unique: 3 | Total (total peptides) [7]: 2 | Unique (unique peptides) [7]: 2

HSP90AB2P
Total (peptides) [9]: 1 | Unique (peptides) [9]: 1 | Total (total peptides) [7]: 1 | Unique (unique peptides) [7]: 1

HSPA1B
Total: 2 | Unique: 2 | Total (total peptides) [2]: 4 | Unique (unique peptides) [2]: 4 | Total (total peptides) [7]: 1 | Unique (unique peptides) [7]: 1 | Total (peptides) [4]: 4 | Unique (peptides) [4]: 4

HSPA1L
Total: 3 | Unique: 3 | Total (total peptides) [2]: 5 | Unique (unique peptides) [2]: 4 | Total (total peptides) [7]: 1 | Unique (unique peptides) [7]: 1 | Total (peptides) [4]: 6 | Unique (peptides) [4]: 6

HSPA2 [listing 1 of 2 here]
Total (peptides) [8]: 1 | Unique (peptides) [8]: 1

HSPA2 [listing 2 of 2 here]
Total (peptides) [9]: 1 | Unique (peptides) [9]: 1 | Total (total peptides) [7]: 1 | Unique (unique peptides) [7]: 1 | Total (peptides) [6]: 2 | Unique (peptides) [6]: 2

HSPA5
Total: 3 | Unique: 3 | Total (total peptides) [2]: 21 | Unique (unique peptides) [2]: 14 | Total (peptides) [3]: 4 | Unique (peptides) [3]: 4 | Total (peptides) [4]: 19 | Unique (peptides) [4]: 14

HSPA8
Total: 4 | Unique: 4 | Total (total peptides) [2]: 9 | Unique (unique peptides) [2]: 8 | Total (peptides) [4]: 8 | Unique (peptides) [4]: 7

HSPA9
Total: 2 | Unique: 2 | Total (total peptides) [2]: 20 | Unique (unique peptides) [2]: 15 | Total (total peptides) [7]: 1 | Unique (unique peptides) [7]: 1 | Total (peptides) [4]: 16 | Unique (peptides) [4]: 14

HSPB1
Total (peptides) [8]: 3 | Unique (peptides) [8]: 2 | Total (total peptides) [7]: 2 | Unique (unique peptides) [7]: 2

ICMT [listing 1 of 2 here]
Total (peptides) [5]: 1 | Unique (peptides) [5]: 1

ICMT [listing 2 of 2 here]
Total (peptides) [6]: 1 | Unique (peptides) [6]: 1

IDH3B
Total (total peptides) [2]: 4 | Unique (unique peptides) [2]: 4 | Total (peptides) [4]: 4 | Unique (peptides) [4]: 4

IGKC
Total (total peptides) [7]: 1 | Unique (unique peptides) [7]: 1

IMP3
Total: 2 | Unique: 2 | Total (total peptides) [7]: 2 | Unique (unique peptides) [7]: 2

INCENP
Total (total peptides) [1]: 7 | Unique (unique peptides) [1]: 7 | Total (peptides) [3]: 5 | Unique (peptides) [3]: 5

INTS1
Total (total peptides) [1]: 4 | Unique (unique peptides) [1]: 4 | Total (total peptides) [7]: 1 | Unique (unique peptides) [7]: 1 | Total (peptides) [4]: 3 | Unique (peptides) [4]: 3

INTS4
Total (total peptides) [2]: 4 | Unique (unique peptides) [2]: 4 | Total (total peptides) [7]: 2 | Unique (unique peptides) [7]: 2 | Total (peptides) [6]: 1 | Unique (peptides) [6]: 1

INTS5
Total (peptides) [8]: 1 | Unique (peptides) [8]: 1

INTS6
Total (total peptides) [2]: 3 | Unique (unique peptides) [2]: 3 | Total (peptides) [6]: 1 | Unique (peptides) [6]: 1

INTS8
Total (peptides) [9]: 1 | Unique (peptides) [9]: 1 | Total (peptides) [8]: 1 | Unique (peptides) [8]: 1 | Total (total peptides) [7]: 1 | Unique (unique peptides) [7]: 1 | Total (peptides) [6]: 1 | Unique (peptides) [6]: 1

INTS11
Total (peptides) [8]: 2 | Unique (peptides) [8]: 2 | Total (peptides) [6]: 2 | Unique (peptides) [6]: 2

IQGAP3
Total (peptides) [8]: 1 | Unique (peptides) [8]: 1

JUN
Total: 1 | Unique: 1 | Total (peptides) [8]: 2 | Unique (peptides) [8]: 2 | Total (peptides) [3]: 4 | Unique (peptides) [3]: 4 | Total (peptides) [6]: 2 | Unique (peptides) [6]: 2

KAT6A
Total (total peptides) [1]: 10 | Unique (unique peptides) [1]: 10 | Total (peptides) [3]: 5 | Unique (peptides) [3]: 4
